In paper doi:10.1101/2022.11.15.516651:
Results are given in words; binding and its absence hold for the method and conditions named. Binding seen in cells or lysates may run through a third protein. Here binding means that the protein was enriched with, or labelled near, the bait; the list need not be complete. Blank lines part the entries; values can stand above or below the binder they belong to.

By UniProt entry, the sequences of proteins in these tests, tags left out. Where a name states a change or a piece, a line headed by the entry shows the natural chain unless it says otherwise. Chains listed by the source or under a name are the forms on record and can include a tag or linker. Residues count along the entry.
FLAG-SLC3A2 WTseq (P08195, residues 66-630): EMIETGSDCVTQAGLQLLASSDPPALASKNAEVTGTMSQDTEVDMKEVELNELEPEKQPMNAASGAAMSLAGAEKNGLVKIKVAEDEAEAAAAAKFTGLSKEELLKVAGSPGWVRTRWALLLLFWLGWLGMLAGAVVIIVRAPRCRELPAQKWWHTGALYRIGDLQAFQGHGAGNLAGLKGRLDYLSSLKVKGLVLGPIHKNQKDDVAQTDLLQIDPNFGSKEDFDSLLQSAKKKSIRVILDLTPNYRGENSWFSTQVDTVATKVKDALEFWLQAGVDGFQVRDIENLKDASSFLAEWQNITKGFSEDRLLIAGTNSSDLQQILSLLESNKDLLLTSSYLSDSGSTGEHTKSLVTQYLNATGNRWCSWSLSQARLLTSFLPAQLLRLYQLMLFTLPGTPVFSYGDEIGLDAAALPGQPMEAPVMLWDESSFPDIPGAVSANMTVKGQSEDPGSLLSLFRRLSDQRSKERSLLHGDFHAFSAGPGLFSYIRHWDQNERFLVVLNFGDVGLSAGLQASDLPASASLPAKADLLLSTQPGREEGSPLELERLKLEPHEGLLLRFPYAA
FLAG-SLC3A2 A273N (P08195, form named): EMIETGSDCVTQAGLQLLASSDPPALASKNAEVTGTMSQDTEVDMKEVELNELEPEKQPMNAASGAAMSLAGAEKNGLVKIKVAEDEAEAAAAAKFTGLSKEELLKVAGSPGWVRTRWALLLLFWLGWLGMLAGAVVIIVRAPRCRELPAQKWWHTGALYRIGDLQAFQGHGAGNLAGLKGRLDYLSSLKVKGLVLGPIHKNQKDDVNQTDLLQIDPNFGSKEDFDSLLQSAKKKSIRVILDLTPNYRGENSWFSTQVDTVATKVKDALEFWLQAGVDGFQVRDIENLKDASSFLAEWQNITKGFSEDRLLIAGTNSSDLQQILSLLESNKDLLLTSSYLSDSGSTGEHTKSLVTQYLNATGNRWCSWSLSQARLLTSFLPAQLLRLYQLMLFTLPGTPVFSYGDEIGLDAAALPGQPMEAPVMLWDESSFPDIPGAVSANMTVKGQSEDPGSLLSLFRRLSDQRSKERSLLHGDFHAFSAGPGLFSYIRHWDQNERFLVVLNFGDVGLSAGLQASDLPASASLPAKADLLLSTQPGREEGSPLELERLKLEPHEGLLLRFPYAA
FLAG-SLC3A2 A273N+D355N (P08195, form named): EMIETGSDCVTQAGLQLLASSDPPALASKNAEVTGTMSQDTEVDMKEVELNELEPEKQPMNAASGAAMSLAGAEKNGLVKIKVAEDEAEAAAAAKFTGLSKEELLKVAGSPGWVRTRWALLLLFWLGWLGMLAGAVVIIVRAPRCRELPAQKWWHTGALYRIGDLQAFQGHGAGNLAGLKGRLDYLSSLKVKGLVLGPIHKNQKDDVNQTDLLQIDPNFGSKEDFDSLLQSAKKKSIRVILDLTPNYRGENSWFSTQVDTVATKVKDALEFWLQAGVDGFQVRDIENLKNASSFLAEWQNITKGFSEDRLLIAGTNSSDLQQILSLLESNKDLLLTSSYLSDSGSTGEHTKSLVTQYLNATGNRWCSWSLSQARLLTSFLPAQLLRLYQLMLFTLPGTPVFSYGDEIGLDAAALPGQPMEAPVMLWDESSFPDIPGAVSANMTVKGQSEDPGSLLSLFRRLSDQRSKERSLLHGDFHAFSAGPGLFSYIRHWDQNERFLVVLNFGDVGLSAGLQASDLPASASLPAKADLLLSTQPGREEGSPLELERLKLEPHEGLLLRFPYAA
FLAG-SLC3A2 N365D (P08195, form named): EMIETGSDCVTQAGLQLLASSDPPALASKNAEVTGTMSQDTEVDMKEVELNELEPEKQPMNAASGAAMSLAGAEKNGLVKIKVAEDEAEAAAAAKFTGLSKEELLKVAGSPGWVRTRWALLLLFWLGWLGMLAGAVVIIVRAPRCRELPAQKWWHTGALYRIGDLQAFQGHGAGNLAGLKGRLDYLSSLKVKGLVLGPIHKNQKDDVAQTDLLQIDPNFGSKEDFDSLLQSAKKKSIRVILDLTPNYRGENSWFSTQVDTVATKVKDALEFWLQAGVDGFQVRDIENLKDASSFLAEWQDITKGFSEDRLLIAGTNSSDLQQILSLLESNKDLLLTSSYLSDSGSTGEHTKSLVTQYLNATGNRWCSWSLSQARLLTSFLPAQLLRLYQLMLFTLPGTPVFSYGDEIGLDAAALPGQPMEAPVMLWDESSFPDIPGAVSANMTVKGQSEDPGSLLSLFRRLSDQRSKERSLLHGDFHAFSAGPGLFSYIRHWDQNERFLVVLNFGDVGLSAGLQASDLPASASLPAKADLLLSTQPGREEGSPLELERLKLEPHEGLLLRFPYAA
FLAG-SLC3A2 N381D (P08195, form named): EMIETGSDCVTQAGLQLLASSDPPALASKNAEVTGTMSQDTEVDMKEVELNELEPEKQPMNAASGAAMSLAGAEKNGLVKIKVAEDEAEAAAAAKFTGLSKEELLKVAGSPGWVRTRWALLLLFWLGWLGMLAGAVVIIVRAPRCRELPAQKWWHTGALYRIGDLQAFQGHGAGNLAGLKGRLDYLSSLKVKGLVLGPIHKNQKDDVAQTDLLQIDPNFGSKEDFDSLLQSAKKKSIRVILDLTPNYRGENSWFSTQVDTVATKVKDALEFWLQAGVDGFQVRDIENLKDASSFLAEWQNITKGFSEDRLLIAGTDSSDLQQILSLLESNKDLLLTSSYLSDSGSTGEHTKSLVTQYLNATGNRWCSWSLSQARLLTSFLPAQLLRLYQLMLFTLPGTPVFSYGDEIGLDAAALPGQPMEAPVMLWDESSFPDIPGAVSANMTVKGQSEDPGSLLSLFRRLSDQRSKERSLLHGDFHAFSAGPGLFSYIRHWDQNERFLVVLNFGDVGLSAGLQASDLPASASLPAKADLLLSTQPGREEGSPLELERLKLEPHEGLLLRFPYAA

Experiments:
Assay in all cases: affinity purification with mass spectrometry
[1] = molecular target: FLAG-SLC3A2 A273N (human) (UniProt P08195)
[2] = molecular target: FLAG-SLC3A2 A273N+D355N (human) (UniProt P08195)
[3] = molecular target: FLAG-SLC3A2 N365D (human) (UniProt P08195)
[4] = molecular target: FLAG-SLC3A2 N381D (human) (UniProt P08195)
[5] = molecular target: FLAG-SLC3A2 WTseq (human) (UniProt P08195)

- binding [1]: binds
- binding [2]: binds
- binding [3]: binds
- binding [4]: binds
- binding [5]: binds
B1: Zn++ transporter SLC30A1 (protein, UniProt Q9Y6M5 1-507)
chain: MGCWGRNRGRLLCMLALTFMFMVLEVVVSRVTSSLAMLSDSFHMLSDVLALVVALVAERFARRTHATQKNTFGWIRAEVMGALVNAIFLTGLCFAILLEAIERFIEPHEMQQPLVVLGVGVAGLLVNVLGLCLFHHHSGFSQDSGHGHSHGGHGHGHGLPKGPRVKSTRPGSSDINVAPGEQGPDQEETNTLVANTSNSNGLKLDPADPENPRSGDTVEVQVNGNLVREPDHMELEEDRAGQLNMRGVFLHVLGDALGSVIVVVNALVFYFSWKGCSEGDFCVNPCFPDPCKAFVEIINSTHASVYEAGPCWVLYLDPTLCVVMVCILLYTTYPLLKESALILLQTVPKQIDIRNLIKELRNVEGVEEVHELHVWQLAGSRIIATAHIKCEDPTSYMEVAKTIKDVFHNHGIHATTIQPEFASVGSKSSVVPCELACRTQCALKQCCGTLPQAPSGKDAEKTPAVSISCLELSNNLEKKPRRTKAENIPAVVIEIKNMPNKQPESSL

- binding [1]: binds
- binding [2]: binds
- binding [5]: binds
B2: SLC1A4 (protein, UniProt P43007 1-532)
chain: MEKSNETNGYLDSAQAGPAAGPGAPGTAAGRARRCAGFLRRQALVLLTVSGVLAGAGLGAALRGLSLSRTQVTYLAFPGEMLLRMLRMIILPLVVCSLVSGAASLDASCLGRLGGIAVAYFGLTTLSASALAVALAFIIKPGSGAQTLQSSDLGLEDSGPPPVPKETVDSFLDLARNLFPSNLVVAAFRTYATDYKVVTQNSSSGNVTHEKIPIGTEIEGMNILGLVLFALVLGVALKKLGSEGEDLIRFFNSLNEATMVLVSWIMWYVPVGIMFLVGSKIVEMKDIIVLVTSLGKYIFASILGHVIHGGIVLPLIYFVFTRKNPFRFLLGLLAPFATAFATCSSSATLPSMMKCIEENNGVDKRISRFILPIGATVNMDGAAIFQCVAAVFIAQLNNVELNAGQIFTILVTATASSVGAAGVPAGGVLTIAIILEAIGLPTHDLPLILAVDWIVDRTTTVVNVEGDALGAGILHHLNQKATKKGEQELAEVKVEAIPNCKSEEETSPLVTHQNPAGPVASAPELESKESVL

- binding [1]: binds
- binding [2]: binds
- binding [5]: binds
B3: SLC38A1 (protein, UniProt Q9H2H9 1-487)
chain: MMHFKSGLELTELQNMTVPEDDNISNDSNDFTEVENGQINSKFISDRESRRSLTNSHLEKKKCDEYIPGTTSLGMSVFNLSNAIMGSGILGLAFALANTGILLFLVLLTSVTLLSIYSINLLLICSKETGCMVYEKLGEQVFGTTGKFVIFGATSLQNTGAMLSYLFIVKNELPSAIKFLMGKEETFSAWYVDGRVLVVIVTFGIILPLCLLKNLGYLGYTSGFSLSCMVFFLIVVIYKKFQIPCIVPELNSTISANSTNADTCTPKYVTFNSKTVYALPTIAFAFVCHPSVLPIYSELKDRSQKKMQMVSNISFFAMFVMYFLTAIFGYLTFYDNVQSDLLHKYQSKDDILILTVRLAVIVAVILTVPVLFFTVRSSLFELAKKTKFNLCRHTVVTCILLVVINLLVIFIPSMKDIFGVVGVTSANMLIFILPSSLYLKITDQDGDKGTQRIWAALFLGLGVLFSLVSIPLVIYDWACSSSSDEGH
